{
  "sequences": {"note": "The chains behind the UniProt entries cited, without tags or fusion partners.", "UniProt Q9P2K8": "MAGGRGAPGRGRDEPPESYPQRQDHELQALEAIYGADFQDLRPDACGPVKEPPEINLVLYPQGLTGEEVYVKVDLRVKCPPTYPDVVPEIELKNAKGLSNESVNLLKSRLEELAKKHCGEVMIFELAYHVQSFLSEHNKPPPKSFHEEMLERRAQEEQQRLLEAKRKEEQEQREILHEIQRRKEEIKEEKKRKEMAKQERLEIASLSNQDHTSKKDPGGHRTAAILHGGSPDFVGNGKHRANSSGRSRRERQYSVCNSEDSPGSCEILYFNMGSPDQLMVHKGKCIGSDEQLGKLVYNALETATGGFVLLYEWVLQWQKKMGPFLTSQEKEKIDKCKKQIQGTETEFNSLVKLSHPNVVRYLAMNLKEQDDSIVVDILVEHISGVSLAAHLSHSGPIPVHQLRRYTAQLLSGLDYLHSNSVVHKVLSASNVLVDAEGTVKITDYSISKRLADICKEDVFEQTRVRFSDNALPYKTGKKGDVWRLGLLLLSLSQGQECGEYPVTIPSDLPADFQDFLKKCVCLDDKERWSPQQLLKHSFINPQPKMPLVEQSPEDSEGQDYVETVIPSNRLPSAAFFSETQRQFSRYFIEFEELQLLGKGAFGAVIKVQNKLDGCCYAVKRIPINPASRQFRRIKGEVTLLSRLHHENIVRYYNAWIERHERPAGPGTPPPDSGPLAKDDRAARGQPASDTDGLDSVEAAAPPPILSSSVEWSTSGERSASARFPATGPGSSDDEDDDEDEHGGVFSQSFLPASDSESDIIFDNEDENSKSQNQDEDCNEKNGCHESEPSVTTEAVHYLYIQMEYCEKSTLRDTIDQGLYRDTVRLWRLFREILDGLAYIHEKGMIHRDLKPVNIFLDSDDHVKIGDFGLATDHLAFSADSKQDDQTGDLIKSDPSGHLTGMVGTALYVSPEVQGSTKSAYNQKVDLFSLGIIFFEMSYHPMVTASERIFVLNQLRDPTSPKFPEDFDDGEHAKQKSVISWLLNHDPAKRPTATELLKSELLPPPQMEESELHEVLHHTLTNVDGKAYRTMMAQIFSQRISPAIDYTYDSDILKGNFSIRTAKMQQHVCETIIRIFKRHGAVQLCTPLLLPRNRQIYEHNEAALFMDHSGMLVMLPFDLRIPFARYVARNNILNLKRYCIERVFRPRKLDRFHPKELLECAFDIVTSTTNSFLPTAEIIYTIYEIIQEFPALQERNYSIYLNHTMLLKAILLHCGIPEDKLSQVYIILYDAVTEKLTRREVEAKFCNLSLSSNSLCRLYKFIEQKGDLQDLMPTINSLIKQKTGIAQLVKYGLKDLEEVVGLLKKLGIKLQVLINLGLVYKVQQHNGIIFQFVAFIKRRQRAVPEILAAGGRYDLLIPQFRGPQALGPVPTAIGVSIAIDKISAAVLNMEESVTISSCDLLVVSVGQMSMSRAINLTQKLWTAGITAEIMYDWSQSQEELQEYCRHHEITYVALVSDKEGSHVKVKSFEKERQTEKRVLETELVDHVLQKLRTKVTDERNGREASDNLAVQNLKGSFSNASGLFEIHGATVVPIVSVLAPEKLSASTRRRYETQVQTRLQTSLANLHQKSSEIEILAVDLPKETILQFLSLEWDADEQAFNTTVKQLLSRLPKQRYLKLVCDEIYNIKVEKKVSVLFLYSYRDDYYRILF"},
  "source": "paper PMC13247162",
  "biological_target": "GCN2 (UniProt Q9P2K8)",
  "test": "co-IP; anti-GCN2 antibody covalently coupled to agarose beads (Pierce Co-Immunoprecipitation Kit), incubated overnight at 4 °C with pre-cleared lysates of HEK293T cells; immunoblot; cells with overexpression of TRIM56 and CD147 and MG132 for 12 h",
  "note": "No constants are given. Whether binding was seen depends on the method and setting. In cells and extracts the contact can be indirect. Some results given as binding are weak or reduced against the parent protein; the word gives no strength.",
  "data": [
    {"binder": "TRIM56 (enzyme, UniProt Q9BRZ2 1-755) MVSHGSSPSLLEALSSDFLACKICLEQLRAPKTLPCLHTYCQDCLAQLADGGRVRCPECRETVPVPPEGVASFKTNFFVNGLLDLVKARACGDLRAGKPACALCPLVGGTSTGGPATARCLDCADDLCQACADGHRCTRQTHTHRVVDLVGYRAGWYDEEARERQAAQCPQHPGEALRFLCQPCSQLLCRECRLDPHLDHPCLPLAEAVRARRPGLEGLLAGVDNNLVELEAARRVEKEALARLREQAARVGTQVEEAAEGVLRALLAQKQEVLGQLRAHVEAAEEAARERLAELEGREQVARAAAAFARRVLSLGREAEILSLEGAIAQRLRQLQGCPWAPGPAPCLLPQLELHPGLLDKNCHLLRLSFEEQQPQKDGGKDGAGTQGGEESQSRREDEPKTERQGGVQPQAGDGAQTPKEEKAQTTREEGAQTLEEDRAQTPHEDGGPQPHRGGRPNKKKKFKGRLKSISREPSPALGPNLDGSGLLPRPIFYCSFPTRMPGDKRSPRITGLCPFGPREILVADEQNRALKRFSLNGDYKGTVPVPEGCSPCSVAALQSAVAFSASARLYLINPNGEVQWRRALSLSQASHAVAALPSGDRVAVSVAGHVEVYNMEGSLATRFIPGGKASRGLRALVFLTTSPQGHFVGSDWQQNSVVICDGLGQVVGEYKGPGLHGCQPGSVSVDKKGYIFLTLREVNKVVILDPKGSLLGDFLTAYHGLEKPRVTTMVDGRYLVVSLSNGTIHIFRVRSPDS", "values": [
      {"measurement": "binding", "value": "binds"}
    ]}
  ]
}
